Common to all, as to assay: EMSA
In general terms: Mobility shift assays separate free from complexed probe on a gel.

Chains of the proteins cited; added tags and fusions are not shown. Residues count along the entry.
UniProt P51608, 90-181: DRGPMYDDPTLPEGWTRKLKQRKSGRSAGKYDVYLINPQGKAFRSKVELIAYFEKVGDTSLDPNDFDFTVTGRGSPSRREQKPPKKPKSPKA

In data set [1] the target is T1, hMBD4 MBD (Homo sapiens) (UniProt O95243).
T1 sequence: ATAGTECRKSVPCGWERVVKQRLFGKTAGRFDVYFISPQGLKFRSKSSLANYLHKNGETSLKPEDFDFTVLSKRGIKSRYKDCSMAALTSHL
The note with it: EMSA: 20 mM HEPES pH 7.3, 30 mM KCl, 1 mM EDTA, 10 mM (NH4)2SO4, 1 mM DTT, 0.2% Tween 20, 50 ng/uL poly(dA)-poly(dT), recombinant protein, protein details: N-term SpA(Z)-Factor Xa-TEV, C-term 8xHis, label: 5' 6-FAM on strand 1.

Data set [2] has as its target T2, hMBD3 MBD (Homo sapiens) (UniProt O95983).
T2 sequence: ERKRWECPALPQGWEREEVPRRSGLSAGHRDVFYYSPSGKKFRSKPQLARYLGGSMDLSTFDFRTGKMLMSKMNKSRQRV
The note with it: EMSA: 20 mM HEPES pH 7.3, 30 mM KCl, 1 mM EDTA, 10 mM (NH4)2SO4, 1 mM DTT, 0.2% Tween 20, 50 ng/uL poly(dA)-poly(dT), recombinant protein, protein details: N-term SpA(Z)-Factor Xa-TEV, C-term 8xHis, label: 5' 6-FAM on strand 1.

In data set [3] the target is hMeCP2 MBD (Homo sapiens) (UniProt P51608). The note with it: poly(dA)-poly(dT) 50 ng/uL; 5-methylcytosine at C12 of both strands (o2967/o2909); EMSA: 20 mM HEPES pH 7.3, 30 mM KCl, 1 mM EDTA, 10 mM (NH4)2SO4, 1 mM DTT, 0.2% Tween 20, 50 ng/uL poly(dA)-poly(dT); recombinant protein; protein details: N-term SpA(Z)-Factor Xa-TEV, C-term 8xHis; label: 5' 6-FAM on strand 1.

For some assays here: Weaker means in comparison with the reference protein, sequence or condition of that experiment. For some assays here: Where a protein sequence is shown, tags need not be part of it. For some assays here: The exact form of at least one protein or probe is not confirmed. For some assays here: At least one verdict rests on a figure or table, not on a statement of the authors.

For orientation: Kd means the constant that tells how readily two partners part at equilibrium.

On to “AAAAAAAAAAACGAAAAAAAAAAA (double strand) [fC/fC duplex]”, for which the binding result in data set [1] (5-formylcytosine at C12 of both strands (o3116/o3113)) was “binds more weakly”. Take “AAAAAAAAAAACGAAAAAAAAAAA (double strand) [caC/caC duplex]”: the binding result is “binds more weakly” in data set [1] (5-carboxycytosine at C12 of both strands (o3117/o3114)) and “binds more weakly” in data set [2] (slightly less reduced, 5-carboxycytosine at C12 of both strands (o3117/o3114)). Regarding “AAAAAAAAAAACGAAAAAAAAAAA (double strand) [mC/mC duplex (p06)]”, the binding result is on record as “binds” in data set [1] (5-methylcytosine at C12 of both strands (o2967/o2909)) and “binds more weakly” in data set [2] (overall low binding, 5-methylcytosine at C12 of both strands (o2967/o2909)). For the same sequence, in data set [3], the Kd was determined as 0.027 µM. As to “AAAAAAAAAAACGAAAAAAAAAAA (double strand) [C/fC duplex]”, the binding result in data set [1] (5-formylcytosine at C12 of one strand only, strand assignment not certain) was “binds more weakly”. Turning to “AAAAAAAAAAACGAAAAAAAAAAA (double strand) [caC/fC duplex]”, in data set [2] (slightly less reduced, 5-carboxycytosine at C12 of one strand, 5-formylcytosine at C12 of the other, strand assignment not certain), the binding result is “binds more weakly”.

The values are drawn from publication PMC7055227.
